In this assay the target is endogenous CXCR4 on lymphoid cancer cells (human (endogenous in Namalwa, Z-138, RPCI-WM1 and patient PBMCs)) (UniProt P61073). As to the kind of experiment: FRET or BRET. (In general: BRET reads energy transfer from a luciferase to a nearby fluorophore.)

Sequences of proteins named here, by UniProt entry; tags and fusion partners are left off. A change or cut given only in a name is not applied to a line headed by its entry.
UniProt P05556: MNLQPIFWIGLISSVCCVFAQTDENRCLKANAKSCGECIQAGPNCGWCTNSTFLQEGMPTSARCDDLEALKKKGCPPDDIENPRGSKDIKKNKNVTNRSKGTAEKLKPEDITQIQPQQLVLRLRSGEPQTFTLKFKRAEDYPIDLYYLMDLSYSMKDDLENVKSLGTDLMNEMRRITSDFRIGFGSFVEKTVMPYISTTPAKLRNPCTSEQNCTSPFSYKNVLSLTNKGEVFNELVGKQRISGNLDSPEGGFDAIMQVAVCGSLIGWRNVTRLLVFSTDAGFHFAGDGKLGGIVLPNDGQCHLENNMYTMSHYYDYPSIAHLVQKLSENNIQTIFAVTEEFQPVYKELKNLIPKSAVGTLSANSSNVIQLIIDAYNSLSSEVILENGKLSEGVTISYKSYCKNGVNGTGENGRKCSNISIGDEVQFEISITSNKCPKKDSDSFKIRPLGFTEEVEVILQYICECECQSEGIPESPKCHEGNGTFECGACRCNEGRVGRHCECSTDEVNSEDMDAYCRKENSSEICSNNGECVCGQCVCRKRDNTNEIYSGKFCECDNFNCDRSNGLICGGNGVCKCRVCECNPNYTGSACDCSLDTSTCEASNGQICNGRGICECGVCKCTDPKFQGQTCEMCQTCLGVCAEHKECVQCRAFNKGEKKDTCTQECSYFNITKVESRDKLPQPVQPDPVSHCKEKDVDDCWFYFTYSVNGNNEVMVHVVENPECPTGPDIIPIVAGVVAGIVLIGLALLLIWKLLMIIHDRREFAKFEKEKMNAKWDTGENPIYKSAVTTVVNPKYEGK

No constants are given. Whether binding was seen depends on the method and setting. Binding seen in cells or lysates may run through a third protein.

From article doi:10.1101/2024.12.06.627249 come the findings set out here.

As to “integrin β1 (from UniProt P05556 21-798) (receptor)”, the binding result is recorded as “no binding”.
